We go through 2 substances from doi:10.1101/2022.03.27.485962.

No constants are given. Whether binding was seen depends on the method and setting. In cells and extracts the contact can be indirect. Binding calls can cover weak binding; strength is not graded here. Sequences can lack the tags named with a protein.

For this assay, the target named is T1, BcsD with a hexa-histidine tag attached to the C-terminus (Komagataeibacter sucrofermentans JCM9730 (BPR2001)) (UniProt P0DTX1).
T1 sequence: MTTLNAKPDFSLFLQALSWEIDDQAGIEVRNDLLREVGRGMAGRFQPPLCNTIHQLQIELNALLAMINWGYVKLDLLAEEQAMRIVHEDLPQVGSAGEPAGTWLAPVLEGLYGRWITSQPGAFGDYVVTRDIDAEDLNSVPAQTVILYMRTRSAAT
The assay can be described thus: pull-down.

For the substance “BcsAB complex with the activity-deficient mutation D333N on BcsA”, the binding result is given as “binds”.

Turning to “BcsAB complex with the activity-deficient mutation W373A on BcsA”, the binding entry is on record as “binds”.
